The target in assay [1] is T1, CBP-SBP-Intu (mouse) (UniProt Q059U7).
T1 sequence: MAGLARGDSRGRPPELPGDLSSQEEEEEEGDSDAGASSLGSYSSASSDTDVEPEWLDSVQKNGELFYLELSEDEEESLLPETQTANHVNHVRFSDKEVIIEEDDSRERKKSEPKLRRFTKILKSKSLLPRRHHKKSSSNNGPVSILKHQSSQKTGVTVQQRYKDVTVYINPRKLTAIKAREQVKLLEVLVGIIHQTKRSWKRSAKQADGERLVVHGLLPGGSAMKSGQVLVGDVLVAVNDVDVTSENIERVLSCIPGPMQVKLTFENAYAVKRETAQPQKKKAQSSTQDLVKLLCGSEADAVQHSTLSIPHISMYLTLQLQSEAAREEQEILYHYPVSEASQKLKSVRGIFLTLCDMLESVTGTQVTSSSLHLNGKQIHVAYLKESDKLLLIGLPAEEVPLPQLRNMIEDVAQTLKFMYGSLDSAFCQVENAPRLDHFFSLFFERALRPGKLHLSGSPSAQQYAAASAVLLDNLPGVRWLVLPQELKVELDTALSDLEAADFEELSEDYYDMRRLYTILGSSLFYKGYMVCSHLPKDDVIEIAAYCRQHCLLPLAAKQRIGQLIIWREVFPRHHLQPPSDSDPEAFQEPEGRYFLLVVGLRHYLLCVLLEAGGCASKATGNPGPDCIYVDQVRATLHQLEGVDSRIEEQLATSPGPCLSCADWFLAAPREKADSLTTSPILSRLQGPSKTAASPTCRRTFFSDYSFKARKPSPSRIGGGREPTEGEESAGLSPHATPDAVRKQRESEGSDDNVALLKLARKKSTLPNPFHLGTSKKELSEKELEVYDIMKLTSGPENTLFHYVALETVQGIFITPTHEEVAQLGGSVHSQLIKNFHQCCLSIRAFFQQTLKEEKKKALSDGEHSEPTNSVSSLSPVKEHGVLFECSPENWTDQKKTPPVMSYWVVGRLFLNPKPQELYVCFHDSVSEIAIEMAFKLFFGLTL
The assay is described as follows: pull-down; STV-pulldown from lysate of 293FT cells transfected with CBP-SBP-Intu, cells untreated or treated with IFN-γ, azide or cisplatin; immunoblot.

By UniProt entry, the sequences of proteins in these tests, tags left out.
UniProt P42224: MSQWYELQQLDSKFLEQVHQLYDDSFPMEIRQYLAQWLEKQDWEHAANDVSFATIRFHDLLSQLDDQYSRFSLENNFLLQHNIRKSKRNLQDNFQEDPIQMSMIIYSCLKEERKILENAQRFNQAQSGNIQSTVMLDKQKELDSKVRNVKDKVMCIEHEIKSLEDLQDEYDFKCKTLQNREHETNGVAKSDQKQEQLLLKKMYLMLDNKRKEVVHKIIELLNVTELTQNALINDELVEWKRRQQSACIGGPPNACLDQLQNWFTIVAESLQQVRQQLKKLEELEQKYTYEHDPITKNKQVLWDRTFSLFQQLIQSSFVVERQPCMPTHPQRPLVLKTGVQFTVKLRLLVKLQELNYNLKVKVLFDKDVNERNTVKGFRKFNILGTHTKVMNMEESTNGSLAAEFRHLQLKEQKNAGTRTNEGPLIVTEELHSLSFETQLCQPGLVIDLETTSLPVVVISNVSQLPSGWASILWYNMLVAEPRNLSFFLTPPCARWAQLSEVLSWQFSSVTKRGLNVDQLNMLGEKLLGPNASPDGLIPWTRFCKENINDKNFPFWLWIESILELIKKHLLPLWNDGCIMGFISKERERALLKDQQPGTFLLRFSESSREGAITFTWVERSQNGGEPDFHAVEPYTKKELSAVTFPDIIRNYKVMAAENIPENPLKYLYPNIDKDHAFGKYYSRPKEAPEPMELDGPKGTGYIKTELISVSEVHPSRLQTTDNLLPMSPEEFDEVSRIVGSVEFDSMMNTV

Assay [2] deals with STAT1 (human (endogenous in 293FT)) (UniProt P42224). Briefly: co-IP; lysate of 293FT cells transfected with Intu-mycDDK; immunoprecipitation with anti-STAT1 antibody or non-immune IgG and agarose beads, 2 h at 4 °C; blot for STAT1 and myc.

These are yes or no findings as the source states them, for the method shown. In cells and extracts the contact can be indirect. Some results given as binding are weak or reduced against the parent protein; the word gives no strength. For some assays here: Sequences can lack the tags named with a protein.

Take STAT1 (from UniProt P42224 1-750): the binding entry in assay [1] is listed as “binds”.

B1: Intu-mycDDK (protein, UniProt Q059U7 1-942)
chain: T1 sequence
Turning to B1, the binding result in assay [2] was “binds”.
